{"sequences": {"note": "Amino acid sequences for entries named in this document (tags omitted).", "UniProt Q0JBA9, entry or part of it": "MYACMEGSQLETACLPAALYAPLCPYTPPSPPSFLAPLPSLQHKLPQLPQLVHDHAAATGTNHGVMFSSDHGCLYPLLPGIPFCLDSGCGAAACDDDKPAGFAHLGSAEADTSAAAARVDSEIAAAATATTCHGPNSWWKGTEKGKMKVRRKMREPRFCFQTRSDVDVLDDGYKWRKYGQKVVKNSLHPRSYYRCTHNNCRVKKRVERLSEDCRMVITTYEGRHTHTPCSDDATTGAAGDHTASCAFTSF"}, "source": "paper PMC7819943", "about": "“Rice protein-binding microarrays: a tool to detect cis-acting elements near promoter regions in rice”", "note": "This is one part of the list.", "data": [{"biological_target": "OsWRKY34 (Oryza sativa, UniProt Q0JBA9 1-250)", "experiment": "protein-binding microarray (RPBM); PBS, 2% BSA, 51.3 ng/ul salmon testes DNA, 50 uM zinc acetate, 200 nM TF, 25 C, 1 h; high values mean tight binding", "settings": "protein: recombinant; tags: N-terminal polyhistidine and DsRed monomer fusion (pET32a); label: CyDye5-dUTP incorporated in the synthesized complementary strand; 3' TTTTT single-stranded linker to array surface; dsDNA, one strand shown", "in_short": "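Transcription factors were each fused at the N-terminus to a polyhistidine tag plus DsRed and expressed in E. coli BL21-CodonPlus before Ni–NTA purification. Binding to a double-stranded custom Agilent array was carried out with 200 nM protein at 25 °C for 1 h in PBS, 2% BSA, salmon testes DNA and 50 µM zinc acetate. The binding signal is per-feature fluorescence intensity, in arbitrary units, on an Axon 4000B scanner.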", "values": [{"sequence": "CATGATAGATCAATCTCTTTCTTTTGTTATCCAGCAGTACCGGAGTCACCTAGTGCAG", "binding signal": "10400 fluorescence intensity (a.u.)"}, {"sequence": "AAATACTTTGTGACTTTTGTTTGTGTCCAGTTTTTACTCCCGGAGTCACCTAGTGCAG", "binding signal": "8810 fluorescence intensity (a.u.)"}, {"sequence": "GCGGCGCGGTGCGCTCGGGTGGGGCCGGTCGACGTCTGCACGGAGTCACCTAGTGCAG", "binding signal": "8120 fluorescence intensity (a.u.)"}, {"sequence": "CCTTTCCCAACTAACTTTCCTTGTTTTCCACAGACATGTTCGGAGTCACCTAGTGCAG", "binding signal": "9640 fluorescence intensity (a.u.)"}, {"sequence": "TGAAATTCTGACCTCACTTCATGCGGCGGGAGGGCGGCTGCGGAGTCACCTAGTGCAG", "binding signal": "9910 fluorescence intensity (a.u.)"}, {"sequence": "AGGCTTGTCCCCAGTTTGCTTCTTTTTTTTTGTCCAAAGACGGAGTCACCTAGTGCAG", "binding signal": "8910 fluorescence intensity (a.u.)"}, {"sequence": "GCCTCCACCGCTGTGCTACTGCATGTTCTTTTTACATTCGCGGAGTCACCTAGTGCAG", "binding signal": "11000 fluorescence intensity (a.u.)"}, {"sequence": "GCCTCATCTTTGCGCACGCGTGCCTCGGCGTCGCACTGGCCGGAGTCACCTAGTGCAG", "binding signal": "8260 fluorescence intensity (a.u.)"}, {"sequence": "CACAGCAGACGCATTTGACAGACACACGTAATCTCAACCACGGAGTCACCTAGTGCAG", "binding signal": "10300 fluorescence intensity (a.u.)"}, {"sequence": "CTCGCCGCGCCTCCACTCCTCACACCACGCTCCTCCTGACCGGAGTCACCTAGTGCAG", "binding signal": "9560 fluorescence intensity (a.u.)"}, {"sequence": "TGAACAGACAGTCAGATTTGCAATATATTCAACCATGCCACGGAGTCACCTAGTGCAG", "binding signal": "8760 fluorescence intensity (a.u.)"}, {"sequence": "GTCATCCGCATCGCCTCGCGCCTCCGCCGCCGTCGCCGTCCGGAGTCACCTAGTGCAG", "binding signal": "8500 fluorescence intensity (a.u.)"}, {"sequence": "TTTCATACAGAAAGTGTGTTGGTCTGTGCTAATCTTTTCCCGGAGTCACCTAGTGCAG", "binding signal": "8020 fluorescence intensity (a.u.)"}, {"sequence": "GCAACCACCACCTCCTCATCCTCCACTGTTCAAGCCAACCCGGAGTCACCTAGTGCAG", "binding signal": "8100 fluorescence intensity (a.u.)"}, {"sequence": "TGTTTTTGTTTTGTTTGTTCTTATCTAATTGTTGTCAGAACGGAGTCACCTAGTGCAG", "binding signal": "9120 fluorescence intensity (a.u.)"}, {"sequence": "AACTTTTACTGCATCTCAGTTTCTGTAAATCTGTAATTCTCGGAGTCACCTAGTGCAG", "binding signal": "8900 fluorescence intensity (a.u.)"}, {"sequence": "CCCGCACCGCAACACGCACACCCACGCGCACGCACAAACCCGGAGTCACCTAGTGCAG", "binding signal": "8060 fluorescence intensity (a.u.)"}, {"sequence": "ATATTTTTTTTTAATATATTGACTTAATTGTTTTGCGCGTCGGAGTCACCTAGTGCAG", "binding signal": "9100 fluorescence intensity (a.u.)"}, {"sequence": "TTGAAACAAGCAACCACATGACATCTTTGACTAATCTGTTCGGAGTCACCTAGTGCAG", "binding signal": "8530 fluorescence intensity (a.u.)"}, {"sequence": "TCTCTCGCCTGTCCTCCTCTACCACCGGCGTGTTGTCAACCGGAGTCACCTAGTGCAG", "binding signal": "8580 fluorescence intensity (a.u.)"}, {"sequence": "ACTACGTTCCCAATCACGAGCCCCGTTCCGGATTTCGCTCCGGAGTCACCTAGTGCAG", "binding signal": "8440 fluorescence intensity (a.u.)"}, {"sequence": "TTTGGTTCTCCTCTCTCTCTCTCTCTCCCTTTTGACATTTCGGAGTCACCTAGTGCAG", "binding signal": "8080 fluorescence intensity (a.u.)"}, {"sequence": "CCACGACTCTGCGTTTGCATGTTTGTGTTGTATTTACTTCCGGAGTCACCTAGTGCAG", "binding signal": "9200 fluorescence intensity (a.u.)"}, {"sequence": "GCTTTGACTAAATTATCATAAAACTATGTATCACACAACTCGGAGTCACCTAGTGCAG", "binding signal": "8390 fluorescence intensity (a.u.)"}, {"sequence": "CTCCATTTTTTTTTTCTTCTCTTCTTCTTACGAACTCGAACGGAGTCACCTAGTGCAG", "binding signal": "8410 fluorescence intensity (a.u.)"}, {"sequence": "GTTCGTGGGAGGAAGACTAGTTTTAGGGCGGGATTATAAACGGAGTCACCTAGTGCAG", "binding signal": "10300 fluorescence intensity (a.u.)"}, {"sequence": "ACAATCCTTCACAAAACCGACTCCAAAACCTCACCCACGTCGGAGTCACCTAGTGCAG", "binding signal": "10400 fluorescence intensity (a.u.)"}, {"sequence": "CACTCTCTCTCGCTGTCTTTCTCTCCTTCCATTTCATTTCCGGAGTCACCTAGTGCAG", "binding signal": "8250 fluorescence intensity (a.u.)"}, {"sequence": "AACAAGTGAAGCAACATTTTTCACTAGCAGGCGGGAGGGGCGGAGTCACCTAGTGCAG", "binding signal": "8520 fluorescence intensity (a.u.)"}, {"sequence": "TCCTCTTTTCCGATACTGATATTACCAAATTTGGTCGTTACGGAGTCACCTAGTGCAG", "binding signal": "8890 fluorescence intensity (a.u.)"}, {"sequence": "GTATAGCCTCTACACCTGTCTGCCTATAAATTCCACACGACGGAGTCACCTAGTGCAG", "binding signal": "9430 fluorescence intensity (a.u.)"}, {"sequence": "GGGAGTACGTACGTTACGTAGGAGGTGGGGACCGGTGTGGCGGAGTCACCTAGTGCAG", "binding signal": "8970 fluorescence intensity (a.u.)"}, {"sequence": "AATGTTTAGGATTTAAAGATGTCTTTTGGTGGGTGGGAAACGGAGTCACCTAGTGCAG", "binding signal": "13200 fluorescence intensity (a.u.)"}, {"sequence": "GGAAGCTAATTATAATCCGACTTAACACCTCTACACGTCACGGAGTCACCTAGTGCAG", "binding signal": "9810 fluorescence intensity (a.u.)"}, {"sequence": "CCTTTTGTTCACCCACGTTTCTGCCCAACCCTCTCACCCTCGGAGTCACCTAGTGCAG", "binding signal": "8430 fluorescence intensity (a.u.)"}, {"sequence": "GACGCAGGGGTTTGGGATATTTTGATGGATTTCGATGACTCGGAGTCACCTAGTGCAG", "binding signal": "14200 fluorescence intensity (a.u.)"}, {"sequence": "TTTTCTGTACGTGAGAACACATTCCAGTGTATACGCCTTCCGGAGTCACCTAGTGCAG", "binding signal": "8680 fluorescence intensity (a.u.)"}, {"sequence": "CTTTTTAAACTGTTTAACGATATATTTTTGTATGAAATATCGGAGTCACCTAGTGCAG", "binding signal": "8230 fluorescence intensity (a.u.)"}, {"sequence": "ACATTTCCTTTAGTTTTATCGTGTCCATGCTGCTTGTTTCCGGAGTCACCTAGTGCAG", "binding signal": "15800 fluorescence intensity (a.u.)"}, {"sequence": "TGCTTGATTCATCGATCTTACTGATTATTTAATTTGTTTTCGGAGTCACCTAGTGCAG", "binding signal": "9700 fluorescence intensity (a.u.)"}, {"sequence": "ATTCCTGATTAATCTCCGCAATTCCATCCCGCCGATTCATCGGAGTCACCTAGTGCAG", "binding signal": "9390 fluorescence intensity (a.u.)"}, {"sequence": "GCTGAACTTTTTTTATTTCATTATAAATATATTTTCTTAACGGAGTCACCTAGTGCAG", "binding signal": "8300 fluorescence intensity (a.u.)"}, {"sequence": "TAGTTTAGTTTAGCCTTTAATTTTGCTTCCTTGCTACTCTCGGAGTCACCTAGTGCAG", "binding signal": "8380 fluorescence intensity (a.u.)"}, {"sequence": "ATGCCCTCTCCAACCTCCACTCCGTCACATGCTCCGGATCCGGAGTCACCTAGTGCAG", "binding signal": "9210 fluorescence intensity (a.u.)"}, {"sequence": "GACTCCATCTTCTTCACGATCTTGTCCAGTACTCCGTATTCGGAGTCACCTAGTGCAG", "binding signal": "8550 fluorescence intensity (a.u.)"}, {"sequence": "GAGATCTTTCCGTTTTGGCCCTTCGGCAAATCCATATTCCCGGAGTCACCTAGTGCAG", "binding signal": "8310 fluorescence intensity (a.u.)"}, {"sequence": "GCAGTTTAGCACCTTTCCTTTTTTTAGCCTCAATACATAGCGGAGTCACCTAGTGCAG", "binding signal": "8580 fluorescence intensity (a.u.)"}, {"sequence": "TTCTATGTTGTGGTTCTGTGTTTTACACTTCAGTTTTGTTCGGAGTCACCTAGTGCAG", "binding signal": "8030 fluorescence intensity (a.u.)"}, {"sequence": "CCGTCCCTAGTCAACGTCTTGTCATTGCCGCCCCAAACTCCGGAGTCACCTAGTGCAG", "binding signal": "10200 fluorescence intensity (a.u.)"}, {"sequence": "GCTCCCCTTGACCGCAACGCGACACGATCCCCACGCTAGCCGGAGTCACCTAGTGCAG", "binding signal": "8200 fluorescence intensity (a.u.)"}, {"sequence": "CTGCTTGTTCTATATTATACATTCCATTACTATGATTTAACGGAGTCACCTAGTGCAG", "binding signal": "10900 fluorescence intensity (a.u.)"}, {"sequence": "GGCAGGTGGCACGTGCTTCTCCTCGTCCTCGTCTCGTCTCCGGAGTCACCTAGTGCAG", "binding signal": "9110 fluorescence intensity (a.u.)"}, {"sequence": "GCACCGTCCATATTTTTGTTTATATTTATGTTTATTAGTTCGGAGTCACCTAGTGCAG", "binding signal": "11500 fluorescence intensity (a.u.)"}, {"sequence": "TCTACCAAACAGTGCCCAATACCGGTTTGACCACGCCACTCGGAGTCACCTAGTGCAG", "binding signal": "9830 fluorescence intensity (a.u.)"}]}]}
